The results in this text go back to patent US20200239543A1 (ALX ONCOLOGY, published 2020).

Sequences of proteins named here, by UniProt entry; tags and fusion partners are left off. A change or cut given only in a name is not applied to a line headed by its entry.
UniProt P02745: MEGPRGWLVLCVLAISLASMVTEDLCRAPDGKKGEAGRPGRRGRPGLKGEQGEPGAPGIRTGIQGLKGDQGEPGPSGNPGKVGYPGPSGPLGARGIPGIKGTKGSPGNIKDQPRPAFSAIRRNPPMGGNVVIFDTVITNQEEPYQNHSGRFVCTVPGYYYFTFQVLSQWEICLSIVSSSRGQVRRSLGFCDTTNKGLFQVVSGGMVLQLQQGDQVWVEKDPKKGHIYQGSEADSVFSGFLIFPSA

In assay [1] the target is complement protein C1q (UniProt P02745). In words: C1q ELISA on coated SIRP-α Fc fusion.
For assay [2] the target is unchanged. Briefly: ELISA: SIRP-α-Fc fusion coated on the plate, human C1q titrated from 0.13 to 100 ug/ml, detection with HRP-conjugated anti-human-C1q.

No constants are given. Whether binding was seen depends on the method and setting. Some results given as binding are weak or reduced against the parent protein; the word gives no strength. Sequences can lack the tags named with a protein.

B1: SIRP-α Fc construct with wildtype IgG2 Fc, SEQ ID NO: 126 (Fc fusion)
chain: EEELQIIQPDKSVLVAAGETATLRCTITSLFPVGPIQWFRGAGPGRVLIYNQRQGPFPRVTTVSDTTKRNNMDFSIRIGNITPADAGTYYCIKFRKGSPDDVEFKSGAGTELSVRAKPSERKCCVECPPCPAPPVAGPSVFLFPPKPKDTLMISRTPEVTCVVVDVSHEDPEVQFNWYVDGVEVHNAKTKPREEQFNSTFRVVSVLTVVHQDWLNGKEYKCKVSNKGLPAPIEKTISKTKGQPREPQVYTLPPSREEMTKNQVSLTCLVKGFYPSDIAVEWESNGQPENNYKTTPPMLDSDGSFFLYSKLTVDKSRWQQGNVFSCSVMHEALHNHYTQKSLSLSPGK
For B1, the binding result with complement protein C1q [1] and with complement protein C1q [2] was “binds” each time.
